Measurements taken from the supplement of paper PMC11438910.
The other results are listed elsewhere or left out. Most of these values are background signal.

Assays:
Test in all cases: fluorescence intensity of antibody binding to polysaccharide-coupled beads; higher = stronger binding
[1] = target: pneumococcal polysaccharide Pn38
[2] = target: pneumococcal polysaccharide Pn39
[3] = target: pneumococcal polysaccharide Pn4
[4] = target: pneumococcal polysaccharide Pn40
[5] = target: pneumococcal polysaccharide Pn41A
[6] = target: pneumococcal polysaccharide Pn41F
[7] = target: pneumococcal polysaccharide Pn42
[8] = target: pneumococcal polysaccharide Pn43
[9] = target: pneumococcal polysaccharide Pn44
[10] = target: pneumococcal polysaccharide Pn45
[11] = target: pneumococcal polysaccharide Pn46
[12] = target: pneumococcal polysaccharide Pn47A
[13] = target: pneumococcal polysaccharide Pn47F
[14] = target: pneumococcal polysaccharide Pn48
[15] = target: pneumococcal polysaccharide Pn5
[16] = target: pneumococcal polysaccharide Pn6A
[17] = target: pneumococcal polysaccharide Pn6B
[18] = target: pneumococcal polysaccharide Pn6C
[19] = target: pneumococcal polysaccharide Pn6D
[20] = target: pneumococcal polysaccharide Pn7A
[21] = target: pneumococcal polysaccharide Pn7B
[22] = target: pneumococcal polysaccharide Pn7C
[23] = target: pneumococcal polysaccharide Pn7F
[24] = antibody concentration 81.7561 ng/mL
[25] = antibody concentration 437.17 ng/mL
[26] = antibody concentration 2337.65 ng/mL
[27] = antibody concentration 12500 ng/mL
[28] = antibody concentration 0.1 ng/mL
[29] = antibody concentration 0.534724 ng/mL
[30] = antibody concentration 2.8593 ng/mL
[31] = antibody concentration 15.2894 ng/mL

B1: 4-127.2 (protein)
chain 1: QVQLQESGPGLVKPSETLSLTCAVSGYSVNSGHGWTWIRQSPGKGLEWIGYIGGGSGSSNYNPSLKSRVTISKDTSNNQLSLKLRSLTTADTAMYYCARRVPADRSGNDYWGQGVLVTVSS
chain 2: QSVLTQPPSVSGDPGQRVTISCTGSSSNIGDYYGYWYQQFPGTAPKLLIFDDNNRPSGISDRFSGSKAGTSASLTITGLQPGDEADYYCGAWDGSLNAHVFGSGTKLTVL
- fluorescence intensity [1, 24]: 26.2 MFI
- fluorescence intensity [1, 25]: 24.8 MFI
- fluorescence intensity [1, 26]: 28 MFI
- fluorescence intensity [1, 27]: 42.5 MFI
- fluorescence intensity [2, 28]: 17.2 MFI
- fluorescence intensity [2, 29]: 16.8 MFI
- fluorescence intensity [2, 30]: 16.5 MFI
- fluorescence intensity [2, 31]: 18 MFI
- fluorescence intensity [2, 24]: 18 MFI
- fluorescence intensity [2, 25]: 19 MFI
- fluorescence intensity [2, 26]: 24 MFI
- fluorescence intensity [2, 27]: 86.5 MFI
- fluorescence intensity [3, 28]: 18.8 MFI
- fluorescence intensity [3, 29]: 17 MFI
- fluorescence intensity [3, 30]: 20 MFI
- fluorescence intensity [3, 31]: 17 MFI
- fluorescence intensity [3, 24]: 17 MFI
- fluorescence intensity [3, 25]: 24 MFI
- fluorescence intensity [3, 26]: 28 MFI
- fluorescence intensity [3, 27]: 35 MFI
- fluorescence intensity [4, 28]: 16 MFI
- fluorescence intensity [4, 29]: 17 MFI
- fluorescence intensity [4, 30]: 17.2 MFI
- fluorescence intensity [4, 31]: 14.5 MFI
- fluorescence intensity [4, 24]: 16.2 MFI
- fluorescence intensity [4, 25]: 18.5 MFI
- fluorescence intensity [4, 26]: 28 MFI
- fluorescence intensity [4, 27]: 162 MFI
- fluorescence intensity [5, 28]: 21.5 MFI
- fluorescence intensity [5, 29]: 22.5 MFI
- fluorescence intensity [5, 30]: 21.5 MFI
- fluorescence intensity [5, 31]: 22 MFI
- fluorescence intensity [5, 24]: 21.8 MFI
- fluorescence intensity [5, 25]: 24 MFI
- fluorescence intensity [5, 26]: 23 MFI
- fluorescence intensity [5, 27]: 30 MFI
- fluorescence intensity [6, 28]: 13.5 MFI
- fluorescence intensity [6, 29]: 12.5 MFI
- fluorescence intensity [6, 30]: 11.5 MFI
- fluorescence intensity [6, 31]: 12.5 MFI
- fluorescence intensity [6, 24]: 13 MFI
- fluorescence intensity [6, 25]: 14 MFI
- fluorescence intensity [6, 26]: 14 MFI
- fluorescence intensity [6, 27]: 21 MFI
- fluorescence intensity [7, 28]: 10.8 MFI
- fluorescence intensity [7, 29]: 12 MFI
- fluorescence intensity [7, 30]: 10 MFI
- fluorescence intensity [7, 31]: 11 MFI
- fluorescence intensity [7, 24]: 12 MFI
- fluorescence intensity [7, 25]: 12.5 MFI
- fluorescence intensity [7, 26]: 13.5 MFI
- fluorescence intensity [7, 27]: 56.5 MFI
- fluorescence intensity [8, 28]: 15.5 MFI
- fluorescence intensity [8, 29]: 14.5 MFI
- fluorescence intensity [8, 30]: 14.5 MFI
- fluorescence intensity [8, 31]: 15 MFI
- fluorescence intensity [8, 24]: 14.5 MFI
- fluorescence intensity [8, 25]: 21.2 MFI
- fluorescence intensity [8, 26]: 45.5 MFI
- fluorescence intensity [8, 27]: 336 MFI
- fluorescence intensity [9, 28]: 24 MFI
- fluorescence intensity [9, 29]: 23.2 MFI
- fluorescence intensity [9, 30]: 23.5 MFI
- fluorescence intensity [9, 31]: 25 MFI
- fluorescence intensity [9, 24]: 24.8 MFI
- fluorescence intensity [9, 25]: 25.8 MFI
- fluorescence intensity [9, 26]: 27 MFI
- fluorescence intensity [9, 27]: 32.5 MFI
- fluorescence intensity [10, 28]: 11 MFI
- fluorescence intensity [10, 29]: 10 MFI
- fluorescence intensity [10, 30]: 10.5 MFI
- fluorescence intensity [10, 31]: 10.5 MFI
- fluorescence intensity [10, 24]: 11 MFI
- fluorescence intensity [10, 25]: 13.5 MFI
- fluorescence intensity [10, 26]: 12.5 MFI
- fluorescence intensity [10, 27]: 16.5 MFI
- fluorescence intensity [11, 28]: 22.5 MFI
- fluorescence intensity [11, 29]: 22 MFI
- fluorescence intensity [11, 30]: 23.5 MFI
- fluorescence intensity [11, 31]: 22.5 MFI
- fluorescence intensity [11, 24]: 22 MFI
- fluorescence intensity [11, 25]: 24 MFI
- fluorescence intensity [11, 26]: 31 MFI
- fluorescence intensity [11, 27]: 106 MFI
- fluorescence intensity [12, 28]: 15.8 MFI
- fluorescence intensity [12, 29]: 15 MFI
- fluorescence intensity [12, 30]: 14.8 MFI
- fluorescence intensity [12, 31]: 15.5 MFI
- fluorescence intensity [12, 24]: 15 MFI
- fluorescence intensity [12, 25]: 15.5 MFI
- fluorescence intensity [12, 26]: 16.5 MFI
- fluorescence intensity [12, 27]: 31.5 MFI
- fluorescence intensity [13, 28]: 11.5 MFI
- fluorescence intensity [13, 29]: 12 MFI
- fluorescence intensity [13, 30]: 11.2 MFI
- fluorescence intensity [13, 31]: 11 MFI
- fluorescence intensity [13, 24]: 11.5 MFI
- fluorescence intensity [13, 25]: 13.2 MFI
- fluorescence intensity [13, 26]: 18.5 MFI
- fluorescence intensity [13, 27]: 88.2 MFI
- fluorescence intensity [14, 28]: 20 MFI
- fluorescence intensity [14, 29]: 20 MFI
- fluorescence intensity [14, 30]: 20 MFI
- fluorescence intensity [14, 31]: 19.8 MFI
- fluorescence intensity [14, 24]: 21.5 MFI
- fluorescence intensity [14, 25]: 28 MFI
- fluorescence intensity [14, 26]: 32.2 MFI
- fluorescence intensity [14, 27]: 44.2 MFI
- fluorescence intensity [15, 28]: 8.5 MFI
- fluorescence intensity [15, 29]: 8 MFI
- fluorescence intensity [15, 30]: 8.5 MFI
- fluorescence intensity [15, 31]: 8.5 MFI
- fluorescence intensity [15, 24]: 8.75 MFI
- fluorescence intensity [15, 25]: 10.8 MFI
- fluorescence intensity [15, 26]: 18.5 MFI
- fluorescence intensity [15, 27]: 108 MFI
- fluorescence intensity [16, 28]: 20.2 MFI
- fluorescence intensity [16, 29]: 21 MFI
- fluorescence intensity [16, 30]: 22 MFI
- fluorescence intensity [16, 31]: 20 MFI
- fluorescence intensity [16, 24]: 21.8 MFI
- fluorescence intensity [16, 25]: 24.2 MFI
- fluorescence intensity [16, 26]: 28.5 MFI
- fluorescence intensity [16, 27]: 34 MFI
- fluorescence intensity [17, 28]: 20 MFI
- fluorescence intensity [17, 29]: 18.8 MFI
- fluorescence intensity [17, 30]: 17.5 MFI
- fluorescence intensity [17, 31]: 16.5 MFI
- fluorescence intensity [17, 24]: 19.5 MFI
- fluorescence intensity [17, 25]: 21.8 MFI
- fluorescence intensity [17, 26]: 23 MFI
- fluorescence intensity [17, 27]: 31.8 MFI
- fluorescence intensity [18, 28]: 20.8 MFI
- fluorescence intensity [18, 29]: 32.5 MFI
- fluorescence intensity [18, 30]: 52.5 MFI
- fluorescence intensity [18, 31]: 65 MFI
- fluorescence intensity [18, 24]: 79.8 MFI
- fluorescence intensity [18, 25]: 69 MFI
- fluorescence intensity [18, 26]: 76.2 MFI
- fluorescence intensity [18, 27]: 86.8 MFI
- fluorescence intensity [19, 28]: 16 MFI
- fluorescence intensity [19, 29]: 16.5 MFI
- fluorescence intensity [19, 30]: 15.5 MFI
- fluorescence intensity [19, 31]: 16 MFI
- fluorescence intensity [19, 24]: 16 MFI
- fluorescence intensity [19, 25]: 20 MFI
- fluorescence intensity [19, 26]: 18.5 MFI
- fluorescence intensity [19, 27]: 25.8 MFI
- fluorescence intensity [20, 28]: 19 MFI
- fluorescence intensity [20, 29]: 18.8 MFI
- fluorescence intensity [20, 30]: 19.5 MFI
- fluorescence intensity [20, 31]: 18.2 MFI
- fluorescence intensity [20, 24]: 20.5 MFI
- fluorescence intensity [20, 25]: 22.5 MFI
- fluorescence intensity [20, 26]: 57.5 MFI
- fluorescence intensity [20, 27]: 484 MFI
- fluorescence intensity [21, 28]: 15.5 MFI
- fluorescence intensity [21, 29]: 16.2 MFI
- fluorescence intensity [21, 30]: 16.5 MFI
- fluorescence intensity [21, 31]: 16.5 MFI
- fluorescence intensity [21, 24]: 15.5 MFI
- fluorescence intensity [21, 25]: 16.5 MFI
- fluorescence intensity [21, 26]: 22 MFI
- fluorescence intensity [21, 27]: 66.8 MFI
- fluorescence intensity [22, 28]: 16 MFI
- fluorescence intensity [22, 29]: 14 MFI
- fluorescence intensity [22, 30]: 14.2 MFI
- fluorescence intensity [22, 31]: 15.8 MFI
- fluorescence intensity [22, 24]: 14.2 MFI
- fluorescence intensity [22, 25]: 15 MFI
- fluorescence intensity [22, 26]: 19.5 MFI
- fluorescence intensity [22, 27]: 64 MFI
- fluorescence intensity [23, 28]: 14.5 MFI
- fluorescence intensity [23, 29]: 14.8 MFI
- fluorescence intensity [23, 30]: 13.5 MFI
- fluorescence intensity [23, 31]: 13.5 MFI
- fluorescence intensity [23, 24]: 16 MFI
- fluorescence intensity [23, 25]: 19.5 MFI
- fluorescence intensity [23, 26]: 44.5 MFI
- fluorescence intensity [23, 27]: 294 MFI
